Measured values taken from paper PMC11068891.
No constants are given. Whether binding was seen depends on the method and setting. In cells and extracts the contact can be indirect. Here binding means that the protein was enriched with, or labelled near, the bait; the list need not be complete. For some assays here: No binding means not detected with the bait. Where a sequence is shown, tags or fusion partners need not be part of it.

Sequences of proteins named here, by UniProt entry; tags and fusion partners are left off.
UniProt Q8IIW4: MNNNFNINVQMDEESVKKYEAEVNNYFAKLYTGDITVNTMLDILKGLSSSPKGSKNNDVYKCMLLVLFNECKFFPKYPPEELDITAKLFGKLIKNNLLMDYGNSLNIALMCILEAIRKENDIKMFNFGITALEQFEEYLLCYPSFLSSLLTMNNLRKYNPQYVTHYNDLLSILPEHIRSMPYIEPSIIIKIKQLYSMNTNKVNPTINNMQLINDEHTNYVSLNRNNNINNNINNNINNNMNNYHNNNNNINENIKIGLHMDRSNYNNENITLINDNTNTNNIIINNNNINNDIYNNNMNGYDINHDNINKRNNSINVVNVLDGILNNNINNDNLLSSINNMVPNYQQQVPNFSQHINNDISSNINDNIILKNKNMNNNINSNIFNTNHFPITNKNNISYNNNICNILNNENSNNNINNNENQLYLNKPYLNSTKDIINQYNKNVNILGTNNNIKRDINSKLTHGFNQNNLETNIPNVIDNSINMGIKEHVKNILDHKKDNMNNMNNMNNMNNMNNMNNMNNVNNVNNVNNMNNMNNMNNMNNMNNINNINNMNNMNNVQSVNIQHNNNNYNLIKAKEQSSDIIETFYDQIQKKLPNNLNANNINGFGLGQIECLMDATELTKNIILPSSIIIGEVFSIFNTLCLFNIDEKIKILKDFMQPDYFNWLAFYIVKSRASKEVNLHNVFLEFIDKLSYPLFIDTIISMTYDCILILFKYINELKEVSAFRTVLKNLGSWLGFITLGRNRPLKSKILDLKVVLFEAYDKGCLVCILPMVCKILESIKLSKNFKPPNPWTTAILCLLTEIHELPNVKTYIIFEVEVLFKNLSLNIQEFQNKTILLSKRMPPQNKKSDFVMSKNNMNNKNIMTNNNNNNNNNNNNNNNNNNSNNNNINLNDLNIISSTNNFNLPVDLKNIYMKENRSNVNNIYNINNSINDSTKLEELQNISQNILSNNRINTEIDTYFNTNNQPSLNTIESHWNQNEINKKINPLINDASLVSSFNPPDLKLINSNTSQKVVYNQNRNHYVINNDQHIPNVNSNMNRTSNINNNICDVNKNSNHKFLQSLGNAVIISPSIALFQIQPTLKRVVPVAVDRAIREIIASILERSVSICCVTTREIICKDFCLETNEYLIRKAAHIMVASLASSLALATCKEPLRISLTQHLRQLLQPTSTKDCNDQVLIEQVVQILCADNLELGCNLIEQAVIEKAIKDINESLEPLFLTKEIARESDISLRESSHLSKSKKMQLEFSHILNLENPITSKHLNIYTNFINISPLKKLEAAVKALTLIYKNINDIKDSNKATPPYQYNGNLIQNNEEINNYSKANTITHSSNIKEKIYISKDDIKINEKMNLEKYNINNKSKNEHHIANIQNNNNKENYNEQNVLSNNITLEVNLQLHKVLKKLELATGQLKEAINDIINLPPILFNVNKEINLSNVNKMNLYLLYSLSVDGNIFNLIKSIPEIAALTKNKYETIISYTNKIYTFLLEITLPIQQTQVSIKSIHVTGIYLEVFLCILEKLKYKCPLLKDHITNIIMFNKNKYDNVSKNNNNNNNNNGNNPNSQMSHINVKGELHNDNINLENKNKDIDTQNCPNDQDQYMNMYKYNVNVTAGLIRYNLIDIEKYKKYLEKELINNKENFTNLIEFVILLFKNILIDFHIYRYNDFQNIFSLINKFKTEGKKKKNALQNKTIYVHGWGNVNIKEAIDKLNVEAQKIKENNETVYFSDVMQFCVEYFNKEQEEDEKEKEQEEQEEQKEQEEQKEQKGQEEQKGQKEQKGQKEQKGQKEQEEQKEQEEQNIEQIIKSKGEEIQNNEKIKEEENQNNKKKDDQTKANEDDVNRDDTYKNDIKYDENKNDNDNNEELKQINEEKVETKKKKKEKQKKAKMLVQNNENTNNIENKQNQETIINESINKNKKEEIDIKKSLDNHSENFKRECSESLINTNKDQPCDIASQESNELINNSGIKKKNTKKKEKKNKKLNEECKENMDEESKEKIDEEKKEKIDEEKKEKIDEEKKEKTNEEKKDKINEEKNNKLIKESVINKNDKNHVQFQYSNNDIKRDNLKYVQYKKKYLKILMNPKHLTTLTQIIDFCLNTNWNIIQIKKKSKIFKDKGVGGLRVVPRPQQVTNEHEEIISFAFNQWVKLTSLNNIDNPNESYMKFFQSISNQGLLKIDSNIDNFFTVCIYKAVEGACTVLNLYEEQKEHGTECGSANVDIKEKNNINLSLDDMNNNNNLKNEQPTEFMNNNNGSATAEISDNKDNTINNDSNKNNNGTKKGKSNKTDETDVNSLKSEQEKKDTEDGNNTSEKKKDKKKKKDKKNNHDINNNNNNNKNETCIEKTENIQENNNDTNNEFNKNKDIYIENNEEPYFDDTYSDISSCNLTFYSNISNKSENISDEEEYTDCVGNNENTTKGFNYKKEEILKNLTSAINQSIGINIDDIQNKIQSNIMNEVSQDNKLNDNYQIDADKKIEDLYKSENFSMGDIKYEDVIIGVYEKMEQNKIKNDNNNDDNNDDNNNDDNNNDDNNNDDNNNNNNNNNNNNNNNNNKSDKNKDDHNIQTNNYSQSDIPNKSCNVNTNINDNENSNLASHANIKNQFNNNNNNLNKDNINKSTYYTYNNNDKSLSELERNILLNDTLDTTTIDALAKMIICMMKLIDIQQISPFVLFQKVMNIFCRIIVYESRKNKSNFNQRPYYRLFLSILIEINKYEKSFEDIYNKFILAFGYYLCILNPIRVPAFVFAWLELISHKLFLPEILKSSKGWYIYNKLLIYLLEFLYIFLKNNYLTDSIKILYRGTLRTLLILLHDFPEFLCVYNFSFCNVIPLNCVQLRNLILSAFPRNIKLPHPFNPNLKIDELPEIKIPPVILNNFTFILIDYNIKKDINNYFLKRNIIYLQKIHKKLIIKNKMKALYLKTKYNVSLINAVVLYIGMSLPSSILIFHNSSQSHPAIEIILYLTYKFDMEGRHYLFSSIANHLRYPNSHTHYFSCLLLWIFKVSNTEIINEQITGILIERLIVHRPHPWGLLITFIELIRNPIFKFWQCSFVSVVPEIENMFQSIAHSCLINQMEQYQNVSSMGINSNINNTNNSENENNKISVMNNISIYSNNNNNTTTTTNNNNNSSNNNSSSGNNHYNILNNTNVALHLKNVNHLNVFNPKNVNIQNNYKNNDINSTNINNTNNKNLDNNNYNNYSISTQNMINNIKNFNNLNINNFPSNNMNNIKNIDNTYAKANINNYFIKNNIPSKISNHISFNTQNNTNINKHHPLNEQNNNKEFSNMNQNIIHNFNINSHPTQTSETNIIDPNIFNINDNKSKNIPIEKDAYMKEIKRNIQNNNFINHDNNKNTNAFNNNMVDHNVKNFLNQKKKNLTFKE

Key:
[1] = target: T1, PfDCP2::GFP (P. falciparum (endogenous in 3D7 parasites)) (UniProt Q8IEM5); test: affinity purification with mass spectrometry; GFP-Trap beads with lysate of PfDCP2::GFP parasites at the schizont stage; same buffers (300 mM NaCl, 0.1% NP40), 4 °C, 2 h; agarose beads as control; LC-MS/MS, SAINT, FDR 1%
T1 sequence: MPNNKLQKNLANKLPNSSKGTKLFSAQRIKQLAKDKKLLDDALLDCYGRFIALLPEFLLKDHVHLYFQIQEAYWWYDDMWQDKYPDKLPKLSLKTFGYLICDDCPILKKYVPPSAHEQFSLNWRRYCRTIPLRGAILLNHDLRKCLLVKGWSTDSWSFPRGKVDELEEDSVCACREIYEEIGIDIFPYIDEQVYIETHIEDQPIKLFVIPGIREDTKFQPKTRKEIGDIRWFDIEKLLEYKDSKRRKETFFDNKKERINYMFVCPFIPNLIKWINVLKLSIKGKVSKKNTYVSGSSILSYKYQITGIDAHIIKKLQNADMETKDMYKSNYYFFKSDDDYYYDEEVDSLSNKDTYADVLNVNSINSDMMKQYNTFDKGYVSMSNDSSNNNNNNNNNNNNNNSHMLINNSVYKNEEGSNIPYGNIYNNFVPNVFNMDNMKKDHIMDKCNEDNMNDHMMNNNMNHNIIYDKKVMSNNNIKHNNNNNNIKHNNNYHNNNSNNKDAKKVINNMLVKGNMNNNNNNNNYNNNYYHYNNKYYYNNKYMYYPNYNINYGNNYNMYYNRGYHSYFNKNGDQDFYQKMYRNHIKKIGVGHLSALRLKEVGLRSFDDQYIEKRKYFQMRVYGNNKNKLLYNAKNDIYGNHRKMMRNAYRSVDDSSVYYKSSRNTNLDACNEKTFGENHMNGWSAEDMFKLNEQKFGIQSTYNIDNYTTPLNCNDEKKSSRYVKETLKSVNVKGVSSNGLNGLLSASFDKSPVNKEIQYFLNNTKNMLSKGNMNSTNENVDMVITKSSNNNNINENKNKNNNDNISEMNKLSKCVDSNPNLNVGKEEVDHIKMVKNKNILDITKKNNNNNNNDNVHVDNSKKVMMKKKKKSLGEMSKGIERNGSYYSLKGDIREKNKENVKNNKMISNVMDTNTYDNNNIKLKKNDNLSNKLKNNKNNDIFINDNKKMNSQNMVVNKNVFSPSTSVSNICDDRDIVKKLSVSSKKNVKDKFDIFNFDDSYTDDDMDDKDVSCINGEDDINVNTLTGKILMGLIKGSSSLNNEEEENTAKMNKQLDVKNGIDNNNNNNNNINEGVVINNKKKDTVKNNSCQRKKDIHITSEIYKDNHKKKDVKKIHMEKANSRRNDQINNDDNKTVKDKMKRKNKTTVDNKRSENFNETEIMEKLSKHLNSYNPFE

[2] = target: T2, PfDOZI::GFP (P. falciparum (endogenous in 3D7 parasites)) (UniProt O97285); test: affinity purification with mass spectrometry; GFP-Trap beads with lysate of purified PfDOZI::GFP gametocytes (day 5), native conditions; same buffers (300 mM NaCl, 0.1% NP40), 4 °C, 2 h; agarose beads as control; LC-MS/MS in triplicate, SAINT, FDR 1%
T2 sequence: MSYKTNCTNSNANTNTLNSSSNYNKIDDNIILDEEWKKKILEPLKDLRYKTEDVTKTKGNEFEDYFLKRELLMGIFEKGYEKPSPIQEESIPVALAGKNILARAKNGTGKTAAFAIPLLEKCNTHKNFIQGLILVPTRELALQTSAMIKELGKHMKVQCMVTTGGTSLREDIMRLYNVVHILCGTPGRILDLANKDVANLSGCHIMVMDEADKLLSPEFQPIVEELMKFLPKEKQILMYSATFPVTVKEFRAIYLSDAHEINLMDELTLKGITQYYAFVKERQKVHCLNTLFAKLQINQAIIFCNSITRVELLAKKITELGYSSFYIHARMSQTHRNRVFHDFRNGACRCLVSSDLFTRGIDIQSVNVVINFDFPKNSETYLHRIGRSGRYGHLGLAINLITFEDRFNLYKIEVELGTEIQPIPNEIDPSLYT

[3] = target: T2, PfDOZI::GFP (P. falciparum (endogenous in 3D7 parasites)); test: affinity purification with mass spectrometry; GFP-Trap beads with lysate of PfDOZI::GFP schizonts under normal culture, native conditions; lysis and wash buffer 300 mM NaCl, 20 mM HEPES pH 7.9, 2 mM MgCl2, 0.2 mM EDTA, 0.1% NP40, 0.5 mM DTT; 4 °C, 2 h; agarose beads as control; LC-MS/MS in triplicate, SAINT, FDR 1%
[4] = target: T3, PfGBP2::GFP (P. falciparum (endogenous in 3D7 parasites)) (UniProt Q8IJX3); test: affinity purification with mass spectrometry; GFP-Trap beads with lysate of PfGBP2::GFP stressed schizonts; same buffers (300 mM NaCl, 0.1% NP40), 4 °C, 2 h; agarose beads as control; LC-MS/MS, SAINT, FDR 1%
T3 sequence: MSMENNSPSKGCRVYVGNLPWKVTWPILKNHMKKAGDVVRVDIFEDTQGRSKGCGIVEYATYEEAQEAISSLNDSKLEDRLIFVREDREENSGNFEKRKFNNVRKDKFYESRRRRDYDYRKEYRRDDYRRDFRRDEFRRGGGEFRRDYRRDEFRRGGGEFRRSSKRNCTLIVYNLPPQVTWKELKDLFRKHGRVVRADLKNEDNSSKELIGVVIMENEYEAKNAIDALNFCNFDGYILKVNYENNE

[5] = target: T2, PfDOZI::GFP (P. falciparum (endogenous in 3D7 parasites)); test: affinity purification with mass spectrometry; GFP-Trap beads with lysate of PfDOZI::GFP schizonts under nutrient starvation (stressed schizonts), native conditions; same buffers (300 mM NaCl, 0.1% NP40), 4 °C, 2 h; agarose beads as control; LC-MS/MS in triplicate, SAINT, FDR 1%

NOT1 (from UniProt Q8IIW4 1-3371) was tested, and the binding [1] was “binds”, the binding [2] was “binds” and the binding [3] was “binds”.

For NOT1-G (from UniProt Q8ILS4 1-4466), the binding [1] was “binds” and the binding [2] was “binds”.

B1: DCP2 (protein, UniProt Q8IEM5 1-1173)
chain: T1 sequence
With B1 the binding [4] was “no binding” and the binding [3] was “binds”.

B2: CAF40 (protein, UniProt Q8I427 1-652)
chain: MVINNDMVKGSNKMKNLNKNIFPVNPNNNVVSNINSSKLNQGGVCIAEDINMGSVNNTNDLNNSDEIINCGNMNKSEDINKPGDINNSDDVNNPDDINNKINVNGIHSPLNESLQNLDRNNMSVCNLGNVTTPVNNINNNINNNINCNNNNNNNNNNSSNSNSNSNSNSNPICINNNENNKYKNSNKCNDFHKDNTTSEQDQTKNDNNINNLSSGQENTINNEEEKKKVYQLVYDLCFSEKRENALLELSRKRETYHDIAPVLWNSFGTITTLLQEIVSIYPQLSPPLLTTSSSNRVCNSLALLQCVASHPETKQHFLNAHIPLFLYPFLNAESKNRPFEYLRLTSLGVIGALVKVDNPEVINFLLQTEIIPLCLRIMETGSELSKTVATFIVQKILIDELGLNYICATPERFYAVSTVLANMVNSLVENPSSRLLKHIVRCYLRLSENARALEALKYCLPEPLRHVHKTFLPCLKEDPFTKKWLLQLLYNINNDDENLTMKNTNFINHNTNQNTSNINNQTLNKISQNVYTNLNVPTALNEININIPKTDTHTNIHNINDNIENSSSQSFNNKINDTNLKCGKINNNKLNPDLTNNDINDNNINDNNNDNNDNNNINDNIMNDDNNNINGDSVNNNNMNDDSVNNNNMNDN
In the case of B2, the binding [1] is reported as “binds”, the binding [2] is reported as “binds” and the binding [3] is reported as “binds”.

B3: PABP1 (protein, UniProt Q8I5H4 1-875)
chain: MIATGTNMMHPSFSTASLYVGDLNEDVTEAVLYEIFNTVGHVSSIRVCRDSVTRKSLGYAYVNYHNLADAERALDTLNYTNIKGQPARLMWSHRDPSLRKSGTGNIFVKNLDKSIDNKALFDTFSMFGNILSCKVATDEFGKSKSYGFVHYEDEESAKEAIEKVNGVQLGSKNVYVGPFIKKSERATNDTKFTNLYVKNFPDSVTETHLRQLFNPYGEITSMIVKMDNKNRKFCFINYADAESAKNAMDNLNGKKITDDGQIDETYDPKKEEATASTSGAANQTTGTDADKTDKNDKNNKADKNEKGDSSNANNNATATGATTTDTTTTPGETTTTTANADSTGANNNNGLSPNTNTSNTTTGSSNNSINLNENNNTAGNNNSTNNNNNSGSSMNNAGSAKKDETAASDCADTPNILYVGPHQSRARRHAILKAKFDNLNVENKNKHQGVNLYIKNLDDGIDDIMLRELFEPFGTITSAKVMRDEKEQSKGFGFVCFASQEEANKAVTEMHLKIINGKPLYVGLAEKREQRLSRLQQRFRMHPIRHHMNNPLNTPMQYASPQSPQLQFSQNTLSYGRPVITAFNQNNLISWRHQQAAQQQAVHQQAVHQQAAQQQLNFNTNLRGQINQMRLYTQNNMMNNNLNQNKPNAQLHHNQQYVPNALAQNGQQQPNLNAAGQHNAQQLQQQGNNQLLNNNMRNMNNRANRNMGNLGNMNNQKQLPLNINNKQQNAASQANQMNHQAQPQGAQAQQKNPQQMQQVPQGNNFKFTAQARNRMELPNKNANKVNTMNNNMNVNFNNNSTLTAAALASAPPSMQKQVLGENLFPLVANYHPTLAGKITGMMLEMDNSELLILLENEEQLKKKIDEALVVLQKAK
B3 was tested, and the binding [4] was “binds”, the binding [2] was “binds” and the binding [3] was “binds”.

B4: CITH (LSm14) (protein, UniProt Q8IK89 1-328)
chain: MSSVSTLPYIGSKISLISNSEIRYEGILYTINTHESTVALQNVRSFGTEGRRQPDIAPSNEVYDFIIFRGKDIKDVTVSETGKNIPDDPAIVSMNIAPSSKNNITDNLNYNNNMNINKSLKVNNNLISSNDRNMNNRRYYNNRPNYNFHYNNRNYNNNQNNNNNNNNNNYKYRNYRNYERSNYVIGELQSQPNPALKNKFSPDFDFNTNNMKFDKNNILEEKNKEDSTALNNHMQVGGYDKNSSFFDNISCETLDKKQGIDEKVDREKLRMLDVDTFGIAAAHYRTNMHNRHQNRMKMRNNRKHKIFSQNNYNYFNRNQNPFNRYPPY
For B4, the binding [4] was “binds”, the binding [2] was “binds” and the binding [5] was “binds”. For the same molecule, the binding [3] was “binds”.
